From the supplement of paper PMC4807443
Counter-ions that a name gives are not always drawn. The list shows a part of the results. The numbers are fractions of the control, whatever unit the source prints. Most values lie at the level of the controls, where differences are scatter.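 MIN6, a mouse insulinoma beta-cell line, stably carries a lentiviral reporter where Pdx1 and Ins1 promoters each drive a nuclear fluorescent protein; Hoechst staining and automated imaging counted cells. Drugs were candidate hits if Ins1 promoter readout exceeded two median absolute deviations from DMSO controls while Pdx1 activity stayed near normal.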

tested on: MIN6; experiment: % Pdx1+ Ins1-low (RFP-only, immature) cells relative to DMSO control (fold of DMSO control); higher = more immature Pdx1+/Ins1-low cells; details: 8.5 µM; 48 h; glucose 5 mM

Structure (SMILES) | % Pdx1+ Ins1-low
c1cnc(N2CCN(Cc3ccc4c(c3)OCO4)CC2)nc1 [Piribedil hydrochloride] | 1.35
C[C@](N)(Cc1ccc(O)c(O)c1)C(=O)O [Methyldopa (L,-)] | 1.05
CCCC1C(=O)N2C(N(C)C)=Nc3ccc(C)cc3N2C1=O (centres undefined) [Azapropazone] | 0.706
C[C@H]1c2cccc(O)c2C(=O)C2=C(O)[C@]3(O)C(=O)C(C(N)=O)=C(O)[C@@H](N(C)C)[C@@H]3[C@@H](O)[C@@H]21 [Doxycycline hydrochloride] | 0.73
C1COC(NC(C2CC2)C2CC2)=N1 [Rilmenidine hemifumarate] | 0.8
O=C(O)c1cn(C2CC2)c2cc(N3CCNCC3)c(F)cc2c1=O [Ciprofloxacin hydrochloride] | 0.717
CC(=O)[C@@]1(O)CC[C@H]2[C@@H]3C[C@H](C)C4=CC(=O)C=C[C@]4(C)[C@@]3(F)[C@@H](O)C[C@@]21C [Fluorometholone] | 1.03
CCc1nc(N)nc(N)c1-c1ccc(Cl)cc1 [Pyrimethamine] | 1
CC(C)NCC(O)COc1ccc(CCOCC2CC2)cc1 (centres undefined) [Betaxolol hydrochloride] | 0.713
C1CCC(C(CC2CCCCN2)C2CCCCC2)CC1 (centres undefined) [Perhexiline maleate] | 1.23
COc1cc(C(=O)NCc2ccc(OCCN(C)C)cc2)cc(OC)c1OC [Trimethobenzamide hydrochloride] | 1.04
Cc1ccc2c(c1)c1c3n2CCNC3CCC1 (centres undefined) [Pirlindole mesylate] | 0.523
O=C(N[C@H](CO)[C@H](O)c1ccc([N+](=O)[O-])cc1)C(Cl)Cl [Chloramphenicol] | 1.76
CCC[C@@H]1C[C@@H](C(=O)N[C@@H]([C@H]2O[C@H](SC)[C@H](O)[C@@H](O)[C@H]2O)[C@H](C)Cl)N(C)C1 [Clindamycin hydrochloride] | 0.546
Cn1cnc2c1c(=O)[nH]c(=O)n2C [Theobromine] | 1.03
CC(C)(CO)C(O)C(=O)NCCCO (centres undefined) [Panthenol (D)] | 1.07
CN(C)C/C=C(/c1ccc(Br)cc1)c1cccnc1 [Zimelidine dihydrochloride monohydrate] | 0.76
CCOc1ccc2ccccc2c1C(=O)N[C@@H]1C(=O)N2[C@@H]1SC(C)(C)[C@@H]2C(=O)O [Nafcillin sodium salt monohydrate] | 1.01
CCN(CC)CCNC(=O)c1cc(Cl)c(N)cc1OC [Metoclopramide monohydrochloride] | 0.97
Nc1ccccc1S(N)(=O)=O [2-Aminobenzenesulfonamide] | 0.622
CC(C)[N+](C)(CCOC(=O)C1c2ccccc2Oc2ccccc21)C(C)C [Propantheline bromide] | 0.633
CN(C)CCC=C1c2ccccc2COc2ccccc21 [Doxepin hydrochloride] | 1.26

Structure (SMILES) | % Pdx1+ Ins1-low
N[C@@H](C(=O)N[C@@H]1C(=O)N2C(C(=O)O)=C(Cl)CC[C@H]12)c1ccccc1 [Loracarbef] | 0.672
Cc1onc(-c2ccccc2Cl)c1C(=O)N[C@@H]1C(=O)N2[C@@H]1SC(C)(C)[C@@H]2C(=O)O [Cloxacillin sodium salt] | 1.18
CN[C@@H]1[C@H](O)[C@H](NC)[C@H]2O[C@@]3(O)C(=O)C[C@@H](C)O[C@H]3O[C@@H]2[C@H]1O [Spectinomycin dihydrochloride] | 1.04
NS(=O)(=O)c1cc2c(cc1Cl)NC(C(Cl)Cl)NS2(=O)=O (centres undefined) [Trichlormethiazide] | 0.935
Cc1c(-c2ccccc2)oc2c(C(=O)OCCN3CCCCC3)cccc2c1=O [Flavoxate hydrochloride] | 0.902
CN[C@@H]1[C@@H](O[C@H]2O[C@H](CO)[C@@H](N)[C@H](O)[C@H]2O)OC2C[C@@H](N)[C@@H](O[C@H]3[C@H](O)[C@@H](O)[C@H](N)C[C@@H]3N)OC2[C@@H]1O (some centres undefined) [Apramycin] | 0.942
CN(C)C(=O)C(CCN1CCC(O)(c2ccc(Cl)cc2)CC1)(c1ccccc1)c1ccccc1 [Loperamide hydrochloride] | 1.29
Cc1cccc(C)c1NC(=O)C(C)N (centres undefined) [Tocainide hydrochloride] | 1.14
CCCCc1cc2ccccc2c(OCCN(C)C)n1 [Dimethisoquin hydrochloride] | 1.16
COc1cc([S+](C)[O-])ccc1-c1nc2cccnc2[nH]1 (centres undefined) [Sulmazole] | 0.969
C[C@H]1O[C@@H](O[C@H]2[C@@H](O)C[C@H](O[C@H]3[C@@H](O)C[C@H](O[C@H]4CC[C@@]5(C)[C@H](CC[C@@H]6[C@@H]5C[C@@H](O)[C@]5(C)[C@@H](C7=CC(=O)OC7)CC[C@]65O)C4)O[C@@H]3C)O[C@@H]2C)C[C@H](O)[C@@H]1O [Digoxin] | 0.943
CC(C(=O)O)c1ccc(-c2ccccc2)c(F)c1 (centres undefined) [Flurbiprofen] | 0.827
O=C(OCC(O)CO)c1ccccc1Nc1ccnc2cc(Cl)ccc12 (centres undefined) [Glafenine hydrochloride] | 0.884
O=c1ccc2cc(O)c(O)cc2o1 [Esculetin] | 0.644
Cc1cccc(C)c1OCC(C)N (centres undefined) [Mexiletine hydrochloride] | 1.28
CC(=O)[C@H]1CC[C@H]2[C@@H]3C=CC4=CC(=O)CC[C@@]4(C)[C@@H]3CC[C@]12C [Dydrogesterone] | 0.585
COc1ccccc1OCC(O)CO (centres undefined) [Guaifenesin] | 0.75
NC[C@@H]1O[C@H](O[C@H]2[C@@H](O)[C@H](O[C@@H]3[C@@H](O)[C@H](N)C[C@H](N)[C@H]3O[C@H]3O[C@H](CO)[C@@H](O)[C@H](O)[C@H]3N)O[C@@H]2CO)[C@H](N)[C@@H](O)[C@@H]1O [Paromomycin sulfate] | 1.08
Cc1c(N(C)C)c(=O)n(-c2ccccc2)n1C [Amidopyrine] | 1.27
Oc1ccc(/C=C/c2cc(O)cc(O)c2)cc1 [Resveratrol] | 0.912
COc1ccc(OC)c(C(O)CNC(=O)CN)c1 (centres undefined) [Midodrine hydrochloride] | 0.677
CN1CCN(CCCN2c3ccccc3Sc3ccc(C(F)(F)F)cc32)CC1 [Trifluoperazine dihydrochloride] | 1.01

3 structures out of the list, arranged by SMILES length, low to high.
Structure (SMILES) | % Pdx1+ Ins1-low
O=c1ccc2cc(O)c(O)cc2o1 [Esculetin] | 0.644
Oc1ccc(/C=C/c2cc(O)cc(O)c2)cc1 [Resveratrol] | 0.912
NC[C@@H]1O[C@H](O[C@H]2[C@@H](O)[C@H](O[C@@H]3[C@@H](O)[C@H](N)C[C@H](N)[C@H]3O[C@H]3O[C@H](CO)[C@@H](O)[C@H](O)[C@H]3N)O[C@@H]2CO)[C@H](N)[C@@H](O)[C@@H]1O [Paromomycin sulfate] | 1.08
